{"source": "PubChem BioAssay AID1259308, NCATS, 2017", "purpose": "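Genes whose loss raises luciferase production in HEK293 cells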 (primary screen)", "cell system": "human HEK293 embryonic kidney cells stably expressing firefly luciferase (HEK-CMV-Luc2-Hygro)", "reagents": "single siRNA against human genes, 0.8 pmol siRNA per well", "duration": "72 h", "read-out": "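Reporter luminescence and viable-cell signal on separate replicate plates, given as percent of non-targeting control and median/MAD z-scores, plus per-cell luciferase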", "scale": "total luciferase, z-score: higher = more reporter protein produced", "call rule": "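Active when the median/MAD z-score for overall luciferase is greater than 3; a gene was taken forward for validation with new siRNAs if at least two of its three siRNAs passed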", "calls": "active = raised luciferase; inactive = no rise", "note": "The whole screen tested about 59,000 reagents; shown is an unselected part. About 1,510 of them (2.6%) were called active. 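Calls use total luciferase alone and ignore viability, so some active siRNAs may act by altering cell number.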 Entries without a mark were called inactive. Further read-outs or replicates are left out here."}
{"gene symbol":"NQO2 (GeneID 4835)","PubChem SID":"SID160731297","total luciferase, z-score":-1.09}
{"gene symbol":"NQO2 (GeneID 4835)","PubChem SID":"SID160778111","total luciferase, z-score":0.226}
{"gene symbol":"NQO2 (GeneID 4835)","PubChem SID":"SID160778112","total luciferase, z-score":0.807}
{"gene symbol":"DTX1 (GeneID 1840)","PubChem SID":"SID160756997","total luciferase, z-score":-0.505}
{"gene symbol":"DTX1 (GeneID 1840)","PubChem SID":"SID160757007","total luciferase, z-score":-0.738}
{"gene symbol":"DTX1 (GeneID 1840)","PubChem SID":"SID160757017","total luciferase, z-score":-0.452}
{"gene symbol":"LOC401218 (GeneID 401218)","PubChem SID":"SID160726243","total luciferase, z-score":-0.698}
{"gene symbol":"LOC401218 (GeneID 401218)","PubChem SID":"SID160770657","total luciferase, z-score":-0.85}
{"gene symbol":"LOC401218 (GeneID 401218)","PubChem SID":"SID160770659","total luciferase, z-score":-0.572}
{"gene symbol":"QARS1 (GeneID 5859)","PubChem SID":"SID160715512","total luciferase, z-score":1.89}
{"gene symbol":"QARS1 (GeneID 5859)","PubChem SID":"SID160715513","total luciferase, z-score":-0.371}
{"gene symbol":"QARS1 (GeneID 5859)","PubChem SID":"SID160715514","total luciferase, z-score":1.8}
{"gene symbol":"NBL1 (GeneID 4681)","PubChem SID":"SID160733457","total luciferase, z-score":2.05}
{"gene symbol":"NBL1 (GeneID 4681)","PubChem SID":"SID160777794","total luciferase, z-score":0.058}
{"gene symbol":"NBL1 (GeneID 4681)","PubChem SID":"SID160777795","total luciferase, z-score":-0.0748}

Reformatted: 4 of the entries above.
{"gene symbol": "LOC401218 (GeneID 401218)", "PubChem SID": "SID160726243", "total luciferase, z-score": -0.698}
{"gene symbol": "LOC401218 (GeneID 401218)", "PubChem SID": "SID160770657", "total luciferase, z-score": -0.85}
{"gene symbol": "LOC401218 (GeneID 401218)", "PubChem SID": "SID160770659", "total luciferase, z-score": -0.572}
{"gene symbol": "QARS1 (GeneID 5859)", "PubChem SID": "SID160715512", "total luciferase, z-score": 1.89}

The list goes on:
{"gene symbol":"MBLAC2 (GeneID 153364)","PubChem SID":"SID160759325","total luciferase, z-score":0.47}
{"gene symbol":"MBLAC2 (GeneID 153364)","PubChem SID":"SID160759326","total luciferase, z-score":0.58}
{"gene symbol":"MBLAC2 (GeneID 153364)","PubChem SID":"SID160759327","total luciferase, z-score":0.077}
{"gene symbol":"JMJD4 (GeneID 65094)","PubChem SID":"SID160724525","total luciferase, z-score":-0.0985}
{"gene symbol":"JMJD4 (GeneID 65094)","PubChem SID":"SID160748257","total luciferase, z-score":-0.462}
{"gene symbol":"JMJD4 (GeneID 65094)","PubChem SID":"SID160748258","total luciferase, z-score":0.00513}
{"gene symbol":"SYNE4 (GeneID 163183)","PubChem SID":"SID160760026","total luciferase, z-score":0.952}
{"gene symbol":"SYNE4 (GeneID 163183)","PubChem SID":"SID160760027","total luciferase, z-score":1.14}
{"gene symbol":"SYNE4 (GeneID 163183)","PubChem SID":"SID160760028","total luciferase, z-score":1.06}
{"gene symbol":"PTK2 (GeneID 5747)","PubChem SID":"SID160715334","total luciferase, z-score":-0.822}
{"gene symbol":"PTK2 (GeneID 5747)","PubChem SID":"SID160715335","total luciferase, z-score":0.568}
{"gene symbol":"PTK2 (GeneID 5747)","PubChem SID":"SID160715336","total luciferase, z-score":-0.768}
{"gene symbol":"MYO9B (GeneID 4650)","PubChem SID":"SID160775565","total luciferase, z-score":0.887}
{"gene symbol":"MYO9B (GeneID 4650)","PubChem SID":"SID160775575","total luciferase, z-score":0.343}
{"gene symbol":"MYO9B (GeneID 4650)","PubChem SID":"SID160775581","total luciferase, z-score":0.27}
{"gene symbol":"HMGN2P46 (GeneID 283651)","PubChem SID":"SID160762998","total luciferase, z-score":-0.166}
{"gene symbol":"HMGN2P46 (GeneID 283651)","PubChem SID":"SID160762999","total luciferase, z-score":2.86}
{"gene symbol":"HMGN2P46 (GeneID 283651)","PubChem SID":"SID160763000","total luciferase, z-score":0.000512}
